{"sequences": {"note": "Chains of the proteins cited; added tags and fusions are not shown. Lines headed by an entry give the natural chain unless they say otherwise; changes in a name come on top.", "UniProt P13020": "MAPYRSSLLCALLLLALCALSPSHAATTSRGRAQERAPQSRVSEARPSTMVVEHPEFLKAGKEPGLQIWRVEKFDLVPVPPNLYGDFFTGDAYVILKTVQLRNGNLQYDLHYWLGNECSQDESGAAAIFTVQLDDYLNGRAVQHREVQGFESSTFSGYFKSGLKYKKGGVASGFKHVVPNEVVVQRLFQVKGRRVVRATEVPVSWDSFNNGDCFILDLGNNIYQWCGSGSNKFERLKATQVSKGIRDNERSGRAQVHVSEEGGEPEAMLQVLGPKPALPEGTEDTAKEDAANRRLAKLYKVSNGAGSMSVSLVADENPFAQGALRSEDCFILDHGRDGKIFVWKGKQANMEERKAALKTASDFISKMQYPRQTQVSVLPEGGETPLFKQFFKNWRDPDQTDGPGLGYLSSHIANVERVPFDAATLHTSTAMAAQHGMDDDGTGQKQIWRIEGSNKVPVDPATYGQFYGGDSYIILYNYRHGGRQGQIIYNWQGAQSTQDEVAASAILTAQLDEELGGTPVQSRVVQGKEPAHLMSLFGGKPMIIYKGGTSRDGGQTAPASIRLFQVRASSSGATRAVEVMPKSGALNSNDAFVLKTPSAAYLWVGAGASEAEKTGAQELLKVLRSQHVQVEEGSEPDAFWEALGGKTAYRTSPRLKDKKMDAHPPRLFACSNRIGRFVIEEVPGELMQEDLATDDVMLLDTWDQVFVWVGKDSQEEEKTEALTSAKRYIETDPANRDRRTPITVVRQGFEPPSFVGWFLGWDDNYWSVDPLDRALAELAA"}, "source": "paper PMC10111864", "key": {"[1]": {"target": "T1, KIF1C (endogenous, untagged) (mouse (endogenous in YUMM1.7)) (UniProt O35071)", "T1 sequence": "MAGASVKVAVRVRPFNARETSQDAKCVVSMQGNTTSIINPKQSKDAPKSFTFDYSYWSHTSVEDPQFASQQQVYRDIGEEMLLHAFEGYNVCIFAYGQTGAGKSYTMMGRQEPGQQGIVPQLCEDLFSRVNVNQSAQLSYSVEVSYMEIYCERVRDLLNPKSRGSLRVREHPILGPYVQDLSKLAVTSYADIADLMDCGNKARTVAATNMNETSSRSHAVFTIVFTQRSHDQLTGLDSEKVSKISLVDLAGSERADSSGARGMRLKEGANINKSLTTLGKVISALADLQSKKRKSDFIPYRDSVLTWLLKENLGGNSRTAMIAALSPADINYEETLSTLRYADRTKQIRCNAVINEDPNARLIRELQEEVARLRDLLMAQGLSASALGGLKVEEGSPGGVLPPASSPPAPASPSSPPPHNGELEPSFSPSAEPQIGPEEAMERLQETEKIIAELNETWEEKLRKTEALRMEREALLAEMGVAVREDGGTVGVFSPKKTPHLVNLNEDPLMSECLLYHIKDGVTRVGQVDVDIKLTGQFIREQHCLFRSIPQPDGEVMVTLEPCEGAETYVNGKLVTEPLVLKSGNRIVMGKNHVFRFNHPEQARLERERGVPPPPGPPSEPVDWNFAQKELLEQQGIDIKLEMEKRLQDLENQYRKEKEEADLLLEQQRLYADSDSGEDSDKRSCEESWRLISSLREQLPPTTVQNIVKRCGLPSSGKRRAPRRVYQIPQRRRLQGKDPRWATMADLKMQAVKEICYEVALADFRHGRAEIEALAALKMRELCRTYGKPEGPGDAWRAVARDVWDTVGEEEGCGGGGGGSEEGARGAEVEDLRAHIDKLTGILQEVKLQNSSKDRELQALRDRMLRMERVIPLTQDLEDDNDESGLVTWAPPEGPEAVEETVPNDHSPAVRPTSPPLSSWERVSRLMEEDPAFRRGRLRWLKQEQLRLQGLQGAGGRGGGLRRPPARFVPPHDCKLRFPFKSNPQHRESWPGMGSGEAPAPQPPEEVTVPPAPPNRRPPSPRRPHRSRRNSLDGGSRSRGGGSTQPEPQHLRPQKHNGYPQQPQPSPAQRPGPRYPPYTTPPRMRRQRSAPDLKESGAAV", "test": "co-IP; α-KIF1C antibody, protein G Dynabeads, lysate of untagged Kif1c+/+ YUMM1.7 cells only (Kif1c mRNA properly localized), Western blot"}, "[2]": {"target": "T1, KIF1C (endogenous, untagged) (mouse (endogenous in YUMM1.7))", "test": "co-IP; α-KIF1C antibody (2 μg), protein G Dynabeads, lysates of untagged Kif1c+/+ and Kif1c ΔGA1,2 YUMM1.7 cells (3-4 mg total protein), Western blot; washes 50 mM Tris pH 7.4, 150 mM NaCl, 0.02% NP-40"}, "[3]": {"target": "T2, KIF1C:mCherry (endogenous KIF1C tagged at the C terminus with mCherry) (mouse (endogenous in YUMM1.7)) (UniProt O35071)", "T2 sequence": "T1 sequence", "test": "co-IP; α-mCherry antibody, protein G Dynabeads, lysate of KIF1C:mCherry +/+ YUMM1.7 cells only (Kif1c mRNA properly localized), Western blot"}, "[4]": {"target": "T2, KIF1C:mCherry (endogenous KIF1C tagged at the C terminus with mCherry) (mouse (endogenous in YUMM1.7))", "test": "co-IP; α-mCherry antibody (10 μg, Invitrogen 16D7), protein G Dynabeads, lysates of KIF1C:mCherry-tagged YUMM1.7 cell lines (+/+ and ΔGA1,2), Western blot; washes 50 mM Tris pH 7.4, 150 mM NaCl, 0.02% NP-40"}}, "note": "These are yes or no findings as the source states them, for the method shown. In cells and extracts the contact can be indirect. Binding can be weak; no strength is given. Where a sequence is shown, tags or fusion partners need not be part of it."}
{"substance": "GSN (from UniProt P13020)", "values": [{"measurement": "binding", "setting": "[1]", "value": "binds weakly"}, {"measurement": "binding", "setting": "[2]", "value": "binds"}, {"measurement": "binding", "setting": "[3]", "value": "binds weakly"}, {"measurement": "binding", "setting": "[4]", "value": "binds"}]}
